According to the supplement of paper PMC10849652:
This is one part of the list.

The chains behind the UniProt entries cited, without tags or fusion partners. Where a name states a change or a piece, a line headed by the entry shows the natural chain unless it says otherwise.
UniProt Q969H6: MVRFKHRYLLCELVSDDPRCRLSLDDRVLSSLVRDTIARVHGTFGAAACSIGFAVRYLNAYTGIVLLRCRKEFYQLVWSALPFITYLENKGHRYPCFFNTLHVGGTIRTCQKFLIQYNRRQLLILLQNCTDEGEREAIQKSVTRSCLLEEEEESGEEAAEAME
UniProt Q10713: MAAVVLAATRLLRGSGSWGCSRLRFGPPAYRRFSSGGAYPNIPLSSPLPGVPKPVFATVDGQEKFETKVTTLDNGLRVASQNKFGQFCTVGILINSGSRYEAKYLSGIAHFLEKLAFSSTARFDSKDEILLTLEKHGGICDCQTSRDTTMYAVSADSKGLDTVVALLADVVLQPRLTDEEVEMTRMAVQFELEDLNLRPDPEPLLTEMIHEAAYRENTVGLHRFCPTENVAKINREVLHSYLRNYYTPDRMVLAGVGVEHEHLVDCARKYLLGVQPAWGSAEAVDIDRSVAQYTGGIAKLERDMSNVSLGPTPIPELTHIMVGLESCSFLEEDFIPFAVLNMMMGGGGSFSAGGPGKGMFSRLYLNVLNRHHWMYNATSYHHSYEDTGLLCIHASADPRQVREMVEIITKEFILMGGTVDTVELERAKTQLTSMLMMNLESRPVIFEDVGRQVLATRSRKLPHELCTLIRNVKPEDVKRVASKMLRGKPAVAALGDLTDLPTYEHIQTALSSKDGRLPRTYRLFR
UniProt P09884: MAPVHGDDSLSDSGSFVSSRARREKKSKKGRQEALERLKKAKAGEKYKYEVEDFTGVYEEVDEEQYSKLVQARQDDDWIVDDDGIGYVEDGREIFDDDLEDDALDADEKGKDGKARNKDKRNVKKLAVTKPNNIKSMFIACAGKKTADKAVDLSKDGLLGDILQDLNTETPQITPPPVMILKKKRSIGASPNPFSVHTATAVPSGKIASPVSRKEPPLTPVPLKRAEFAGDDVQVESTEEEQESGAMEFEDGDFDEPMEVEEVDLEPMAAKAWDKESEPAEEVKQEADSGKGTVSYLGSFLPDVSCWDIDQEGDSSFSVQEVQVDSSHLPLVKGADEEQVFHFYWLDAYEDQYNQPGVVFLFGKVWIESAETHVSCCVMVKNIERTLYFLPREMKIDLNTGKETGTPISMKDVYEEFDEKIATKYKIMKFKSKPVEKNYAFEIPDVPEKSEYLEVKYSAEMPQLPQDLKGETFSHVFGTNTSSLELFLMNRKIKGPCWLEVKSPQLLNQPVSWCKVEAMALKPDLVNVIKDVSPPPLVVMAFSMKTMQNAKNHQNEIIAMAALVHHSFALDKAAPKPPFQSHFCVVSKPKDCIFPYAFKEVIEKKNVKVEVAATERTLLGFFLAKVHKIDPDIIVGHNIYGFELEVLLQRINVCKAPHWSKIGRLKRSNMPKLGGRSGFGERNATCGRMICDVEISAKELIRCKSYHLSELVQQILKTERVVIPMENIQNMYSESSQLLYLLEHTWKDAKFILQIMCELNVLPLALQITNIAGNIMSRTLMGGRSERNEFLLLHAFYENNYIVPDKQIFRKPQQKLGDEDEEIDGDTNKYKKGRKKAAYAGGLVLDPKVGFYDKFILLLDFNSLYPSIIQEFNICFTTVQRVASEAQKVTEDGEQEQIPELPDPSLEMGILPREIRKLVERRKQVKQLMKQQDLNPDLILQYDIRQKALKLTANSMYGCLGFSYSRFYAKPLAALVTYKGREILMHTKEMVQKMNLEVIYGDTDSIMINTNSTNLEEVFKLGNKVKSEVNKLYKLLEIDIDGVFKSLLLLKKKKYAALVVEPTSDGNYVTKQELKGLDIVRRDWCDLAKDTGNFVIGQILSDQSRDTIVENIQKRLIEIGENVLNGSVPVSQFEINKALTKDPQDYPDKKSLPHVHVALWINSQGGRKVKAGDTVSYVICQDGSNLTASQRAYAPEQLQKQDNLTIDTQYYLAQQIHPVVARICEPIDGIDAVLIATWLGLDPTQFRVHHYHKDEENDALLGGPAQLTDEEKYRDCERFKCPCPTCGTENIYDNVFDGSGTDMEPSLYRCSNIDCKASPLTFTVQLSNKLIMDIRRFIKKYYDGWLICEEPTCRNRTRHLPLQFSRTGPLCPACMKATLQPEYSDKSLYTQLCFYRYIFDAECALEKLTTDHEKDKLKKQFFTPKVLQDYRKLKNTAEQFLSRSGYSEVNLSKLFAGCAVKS
UniProt O15305: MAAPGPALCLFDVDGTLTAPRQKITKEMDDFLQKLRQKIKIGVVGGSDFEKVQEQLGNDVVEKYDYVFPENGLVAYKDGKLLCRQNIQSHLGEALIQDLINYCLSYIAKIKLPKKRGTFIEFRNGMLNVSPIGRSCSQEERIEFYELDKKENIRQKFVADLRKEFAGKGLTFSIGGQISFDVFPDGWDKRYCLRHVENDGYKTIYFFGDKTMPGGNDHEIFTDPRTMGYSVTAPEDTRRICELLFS
UniProt P05423: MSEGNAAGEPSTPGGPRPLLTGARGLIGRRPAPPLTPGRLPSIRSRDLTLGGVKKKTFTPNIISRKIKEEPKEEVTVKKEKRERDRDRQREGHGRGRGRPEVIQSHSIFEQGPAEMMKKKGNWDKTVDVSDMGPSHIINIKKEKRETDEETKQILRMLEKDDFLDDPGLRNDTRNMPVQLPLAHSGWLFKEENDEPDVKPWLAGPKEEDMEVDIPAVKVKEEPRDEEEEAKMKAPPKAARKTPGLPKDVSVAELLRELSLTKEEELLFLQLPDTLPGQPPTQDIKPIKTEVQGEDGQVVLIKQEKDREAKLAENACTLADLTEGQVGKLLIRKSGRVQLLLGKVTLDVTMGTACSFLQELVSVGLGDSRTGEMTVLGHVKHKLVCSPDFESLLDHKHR
UniProt O43660: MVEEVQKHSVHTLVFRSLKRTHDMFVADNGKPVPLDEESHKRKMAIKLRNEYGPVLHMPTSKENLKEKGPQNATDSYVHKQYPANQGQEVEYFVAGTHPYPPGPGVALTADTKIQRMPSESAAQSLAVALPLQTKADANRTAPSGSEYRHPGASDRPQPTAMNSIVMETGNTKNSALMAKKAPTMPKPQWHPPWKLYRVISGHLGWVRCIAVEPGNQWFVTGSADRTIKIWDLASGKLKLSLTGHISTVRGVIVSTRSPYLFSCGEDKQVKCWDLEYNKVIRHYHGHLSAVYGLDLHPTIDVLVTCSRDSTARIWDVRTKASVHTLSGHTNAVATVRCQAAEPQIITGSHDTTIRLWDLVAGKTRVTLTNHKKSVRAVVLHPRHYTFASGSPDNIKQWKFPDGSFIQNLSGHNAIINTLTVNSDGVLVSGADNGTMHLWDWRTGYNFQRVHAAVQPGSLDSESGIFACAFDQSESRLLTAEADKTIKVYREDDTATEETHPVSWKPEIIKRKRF
UniProt P28340: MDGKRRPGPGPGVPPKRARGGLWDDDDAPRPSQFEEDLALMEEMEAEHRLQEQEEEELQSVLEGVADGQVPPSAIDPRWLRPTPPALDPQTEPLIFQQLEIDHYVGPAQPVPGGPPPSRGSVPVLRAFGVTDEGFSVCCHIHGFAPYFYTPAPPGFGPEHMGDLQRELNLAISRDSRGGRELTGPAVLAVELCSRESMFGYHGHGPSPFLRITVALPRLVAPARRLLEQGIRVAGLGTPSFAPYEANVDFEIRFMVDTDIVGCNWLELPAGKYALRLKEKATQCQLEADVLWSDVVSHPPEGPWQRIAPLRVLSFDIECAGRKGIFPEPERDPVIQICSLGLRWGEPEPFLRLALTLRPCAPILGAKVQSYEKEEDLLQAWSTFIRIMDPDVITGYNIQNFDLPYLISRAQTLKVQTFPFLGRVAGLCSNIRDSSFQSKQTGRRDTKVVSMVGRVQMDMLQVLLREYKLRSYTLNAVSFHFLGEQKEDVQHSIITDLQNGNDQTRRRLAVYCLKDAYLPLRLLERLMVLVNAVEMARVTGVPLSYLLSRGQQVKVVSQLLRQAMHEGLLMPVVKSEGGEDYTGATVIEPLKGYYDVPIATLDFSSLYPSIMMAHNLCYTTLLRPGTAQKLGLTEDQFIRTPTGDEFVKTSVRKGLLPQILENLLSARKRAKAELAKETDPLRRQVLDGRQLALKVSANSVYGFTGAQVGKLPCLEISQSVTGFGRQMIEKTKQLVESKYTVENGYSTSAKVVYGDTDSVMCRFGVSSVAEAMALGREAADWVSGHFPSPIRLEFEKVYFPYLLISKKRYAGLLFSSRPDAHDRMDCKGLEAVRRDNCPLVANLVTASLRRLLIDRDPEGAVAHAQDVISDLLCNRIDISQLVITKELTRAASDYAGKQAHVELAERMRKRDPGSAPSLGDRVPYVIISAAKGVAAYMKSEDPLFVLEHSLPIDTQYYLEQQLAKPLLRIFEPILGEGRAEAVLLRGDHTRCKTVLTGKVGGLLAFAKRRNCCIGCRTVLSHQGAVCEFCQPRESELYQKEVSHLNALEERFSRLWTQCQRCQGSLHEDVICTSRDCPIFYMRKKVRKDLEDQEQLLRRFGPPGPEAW
UniProt Q8NBL1: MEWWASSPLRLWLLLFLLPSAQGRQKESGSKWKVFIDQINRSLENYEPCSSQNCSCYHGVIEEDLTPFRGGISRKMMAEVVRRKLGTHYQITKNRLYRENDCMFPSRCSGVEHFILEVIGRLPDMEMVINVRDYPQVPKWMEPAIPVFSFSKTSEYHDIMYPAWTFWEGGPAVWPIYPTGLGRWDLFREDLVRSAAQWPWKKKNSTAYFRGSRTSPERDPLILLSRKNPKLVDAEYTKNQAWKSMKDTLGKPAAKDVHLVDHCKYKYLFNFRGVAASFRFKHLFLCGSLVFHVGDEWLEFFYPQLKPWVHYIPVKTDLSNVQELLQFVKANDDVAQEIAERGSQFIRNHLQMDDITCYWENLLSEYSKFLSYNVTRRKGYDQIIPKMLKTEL
UniProt O75145: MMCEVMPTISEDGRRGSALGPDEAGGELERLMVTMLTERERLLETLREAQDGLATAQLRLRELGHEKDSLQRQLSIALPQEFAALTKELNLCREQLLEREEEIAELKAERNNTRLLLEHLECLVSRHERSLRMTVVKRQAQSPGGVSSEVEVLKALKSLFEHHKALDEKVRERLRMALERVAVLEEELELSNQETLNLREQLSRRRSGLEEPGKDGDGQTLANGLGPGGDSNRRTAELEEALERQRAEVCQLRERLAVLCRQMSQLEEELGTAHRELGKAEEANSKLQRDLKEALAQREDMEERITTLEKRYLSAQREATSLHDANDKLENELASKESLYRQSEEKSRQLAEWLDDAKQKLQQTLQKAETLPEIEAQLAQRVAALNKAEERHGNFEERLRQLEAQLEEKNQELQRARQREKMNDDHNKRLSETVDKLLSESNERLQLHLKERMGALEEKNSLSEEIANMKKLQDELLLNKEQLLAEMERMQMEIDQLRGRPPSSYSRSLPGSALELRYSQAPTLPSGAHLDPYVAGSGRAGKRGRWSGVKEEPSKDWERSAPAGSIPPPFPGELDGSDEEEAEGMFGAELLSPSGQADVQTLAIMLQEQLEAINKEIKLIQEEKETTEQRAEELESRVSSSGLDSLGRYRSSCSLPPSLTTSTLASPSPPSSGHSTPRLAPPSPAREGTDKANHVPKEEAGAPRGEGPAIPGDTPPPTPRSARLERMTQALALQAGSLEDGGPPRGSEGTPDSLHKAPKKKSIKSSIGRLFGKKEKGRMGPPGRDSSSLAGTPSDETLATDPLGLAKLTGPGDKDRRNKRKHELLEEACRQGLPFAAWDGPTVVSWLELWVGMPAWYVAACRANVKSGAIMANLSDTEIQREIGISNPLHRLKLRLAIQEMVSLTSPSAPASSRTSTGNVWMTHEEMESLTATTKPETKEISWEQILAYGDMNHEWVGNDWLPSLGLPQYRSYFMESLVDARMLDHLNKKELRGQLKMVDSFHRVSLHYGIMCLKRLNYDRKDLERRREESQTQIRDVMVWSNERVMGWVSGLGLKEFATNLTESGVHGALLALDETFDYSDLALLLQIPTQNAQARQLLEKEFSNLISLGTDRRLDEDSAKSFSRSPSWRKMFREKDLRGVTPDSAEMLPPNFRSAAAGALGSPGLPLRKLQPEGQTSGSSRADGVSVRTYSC
UniProt Q92871: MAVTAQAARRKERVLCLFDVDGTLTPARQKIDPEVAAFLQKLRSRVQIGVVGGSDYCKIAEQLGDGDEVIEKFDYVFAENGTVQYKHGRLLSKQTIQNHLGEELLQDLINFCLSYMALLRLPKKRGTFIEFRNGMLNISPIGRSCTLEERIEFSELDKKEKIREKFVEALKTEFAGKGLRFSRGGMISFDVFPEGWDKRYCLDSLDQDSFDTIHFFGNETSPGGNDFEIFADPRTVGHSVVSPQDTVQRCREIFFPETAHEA
UniProt Q9NRY6: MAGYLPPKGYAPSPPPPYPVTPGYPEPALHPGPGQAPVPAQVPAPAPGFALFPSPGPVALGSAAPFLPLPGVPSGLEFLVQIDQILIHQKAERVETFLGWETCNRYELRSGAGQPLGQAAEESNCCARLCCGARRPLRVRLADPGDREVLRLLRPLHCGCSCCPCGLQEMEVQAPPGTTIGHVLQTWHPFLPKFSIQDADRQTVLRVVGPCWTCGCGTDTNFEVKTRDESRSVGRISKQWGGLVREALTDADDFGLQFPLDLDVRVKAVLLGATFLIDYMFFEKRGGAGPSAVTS

Tests used:
Assay in all cases: log2 fold change, soluble protein after heating vs DMSO (PISA); higher = thermal stabilisation; K562 lysate, 10 uM; active = over 0.2 and 3.5 SD of the protein, either way, in both replicates (recomputed)
[1] = compound: C=CC(=O)N1CCC[C@@H](n2nc(-c3ccc(Oc4ccccc4)cc3)c3c(N)ncnc32)C1 [ibrutinib]
Outline: (§1)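 Quantification was by TMTpro 16plex LC-MS/MS with equalised channel sums, applied to the supernatant after 21,000xg for 90 min. Samples were crude K562 extract at 1 mg/mL protein in PBS pH 7.4 with 1 mM MgCl2, treated with 10 μM compound for 30 min, heated for 3 min across 48°C-58°C, pooled and brought to 0.5% NP-40 at 4°C. Values are log-two fold changes in thermal stability relative to solvent controls, from duplicates.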

[2] = compound: CC(=O)c1cnc2ccc(-c3cc(Cl)c(O)c(Cl)c3)nc2c1N[C@H]1CC[C@H](CN(C)C)CC1
Outline: as §1

[3] = compound: CC(C)(C)Cn1c(N)nc2ccc(-c3[nH]c(C(C)(C)C)nc3-c3ccc(F)cc3)nc21 [ralimetinib]
Outline: as §1

[4] = compound: CC(C)(O)CC(=O)NCCn1ccc2ncnc(Nc3ccc(Oc4cccc(C(F)(F)F)c4)c(Cl)c3)c21
Outline: as §1

[5] = compound: CC(C)C1=C2N=C(C=C(N2N=C1)NCC3=CC=CC=C3)NCCCCCCN
Outline: as §1

[6] = compound: CC1=C(C(CC(=O)N1)C2=CC=C(C=C2)C(F)(F)F)C(=O)NC3=C(C=C4C(=C3)C=NN4)F
Outline: as §1

[7] = compound: CC1=C(C2=C(C=C1)C(=O)C3=CC=CC=C3N2CCCN)C
Outline: as §1

[8] = compound: CC1=C(C=C(C=C1)NC(=O)C2=CC(=CC=C2)C(C)(C)C#N)NC3=CC4=C(C=C3)N=CN(C4=O)C
Outline: as §1

[9] = compound: CC1=C(C=C(C=C1)NC(=O)C2=CC(=CC=C2)N(C)C)NC(=O)C3=CC=C(C=C3)O
Outline: as §1

[10] = compound: CC1=CC=C(C=C1)SC2=C3C=C(SC3=CN=C2)C(=O)N
Outline: as §1

Measured: log2 fold change

POLDIP2 (UniProt Q9Y2S7)
inactive: [1] 0.003 | [2] 0.011 | [3] 0.019 | [4] -0.022 | [5] -0.021 | [6] -0.051 | [7] 0.022 | [8] -0.039 | [9] -0.034 | [10] 0.04

POP5 (UniProt Q969H6)
inactive: [1] 0.012 | [2] -0.035 | [3] 0.115 | [4] 0.014 | [5] -0.06 | [6] 0.02 | [7] -0.039 | [8] 0.066 | [9] -0.084 | [10] -0.01

PON2 (UniProt Q15165)
inactive: [1] -0.028 | [2] 0.005 | [3] 0.025 | [4] -0.001 | [5] -0.004 | [6] 0.048 | [7] 0.005 | [8] 0.012 | [9] -0.033 | [10] -0.044

POLR1B isoform 3 (UniProt Q9H9Y6)
inactive: [1] 0.137 | [2] -0.006 | [3] 0.01 | [4] -0.015 | [5] 0.058 | [6] -0.005 | [7] -0.024 | [8] -0.036 | [9] 0.009 | [10] 0.03

POTEF (UniProt A5A3E0)
inactive: [1] -0.01 | [2] -0.022 | [3] 0.028 | [4] -0.02 | [5] -0.026 | [6] -0.021 | [7] 0.02 | [8] 0.049 | [9] 0 | [10] 0.004

PMPCA (UniProt Q10713)
inactive: [1] -0.052 | [2] -0.023 | [3] 0.006 | [4] -0.038 | [5] -0.047 | [6] -0.043 | [7] -0.041 | [8] 0.033 | [9] -0.036 | [10] 0.015

POM121 (UniProt Q96HA1)
inactive: [1] 0.015 | [2] 0.075 | [3] -0.04 | [4] 0.006 | [5] -0.037 | [7] -0.1 | [8] 0.022 | [9] 0.09 | [10] 0.048

PNN (UniProt Q9H307)
inactive: [1] 0.033 | [2] 0.01 | [3] 0.007 | [4] -0.02 | [5] -0.011 | [6] 0 | [7] 0.024 | [8] 0.052 | [9] -0.013 | [10] -0.015

PNMA8A (UniProt Q86V59)
inactive: [1] 0.033 | [2] -0.061 | [3] 0.147 | [4] -0.135 | [5] -0.123 | [6] 0.033 | [7] -0.078 | [9] 0.091 | [10] -0.021

POLA1 (UniProt P09884)
inactive: [1] 0 | [2] -0.013 | [3] -0.032 | [4] 0.003 | [5] 0.001 | [6] 0.007 | [7] -0.001 | [8] 0.02 | [9] 0.022 | [10] -0.016

PPCS (UniProt Q9HAB8)
inactive: [1] 0.029 | [2] 0.028 | [3] 0.027 | [4] -0.004 | [5] -0.069 | [6] 0.001 | [7] 0.013 | [8] 0.026 | [9] -0.024 | [10] 0.022

PNKD isoform 2 (UniProt Q8N490)
inactive: [1] 0.126 | [2] 0.005 | [3] 0.03 | [4] -0.003 | [5] -0.045 | [6] -0.069 | [7] -0.064 | [8] -0.059 | [9] 0.066 | [10] -0.107

PMM2 (UniProt O15305)
inactive: [1] -0.007 | [2] 0.021 | [3] 0.01 | [4] 0.035 | [5] -0.006 | [6] -0.013 | [7] 0 | [8] -0.017 | [9] 0.016 | [10] 0.035

PLG (UniProt P00747)
inactive: [1] -0.032 | [2] 0 | [3] -0.005 | [4] -0.163 | [5] 0.048 | [6] 0.032 | [7] 0.026 | [8] -0.127 | [9] 0.028 | [10] -0.05

POLR1A (UniProt O95602)
inactive: [1] 0.076 | [2] -0.006 | [3] 0.012 | [4] -0.05 | [5] 0.007 | [6] 0.014 | [7] -0.081 | [8] -0.024 | [9] 0.018 | [10] 0.023

PLXNA3 (UniProt P51805)
inactive: [1] -0.03 | [2] 0.004 | [3] -0.042 | [4] -0.13 | [5] -0.017 | [8] 0.114 | [9] 0.031 | [10] -0.129

PNO1 (UniProt Q9NRX1)
inactive: [1] 0.022 | [2] -0.021 | [3] 0.042 | [4] -0.024 | [5] -0.036 | [6] 0.013 | [7] -0.015 | [8] -0.001 | [9] 0.018 | [10] 0.004

POLR2B (UniProt P30876)
inactive: [1] -0.011 | [2] -0.017 | [3] 0.025 | [4] -0.018 | [5] 0.005 | [6] 0.029 | [7] -0.031 | [8] -0.014 | [9] 0.028 | [10] 0.032

POLR3D (UniProt P05423)
inactive: [1] -0.015 | [2] -0.021 | [3] -0.017 | [4] -0.054 | [5] 0.82 | [6] 0.015 | [7] -0.047 | [8] -0.028 | [9] 0.019 | [10] 0.014

PLRG1 (UniProt O43660)
inactive: [1] -0.015 | [2] -0.024 | [3] 0.011 | [4] -0.01 | [5] -0.015 | [6] -0.041 | [7] 0.02 | [8] -0.014 | [9] 0.019 | [10] -0.011

PNPLA2 (UniProt Q96AD5)
inactive: [1] 0.087 | [2] -0.007 | [3] 0.007 | [4] -0.1 | [5] 0.041 | [6] -0.046 | [7] 0.034 | [8] 0.106 | [9] 0.023 | [10] -0.012

POLR2H (UniProt P52434)
inactive: [1] -0.014 | [2] -0.014 | [3] -0.059 | [4] -0.05 | [5] -0.035 | [6] 0.014 | [7] 0.003 | [8] 0.013 | [9] 0.001 | [10] -0.006

POLR2A, A0A590UJN4
inactive: [1] -0.009 | [2] -0.015 | [3] -0.003 | [4] -0.006 | [5] 0.014 | [6] 0.012 | [7] 0.003 | [8] -0.042 | [9] 0.048 | [10] 0.021

2 consecutive entries from above:
PNO1 (UniProt Q9NRX1)
inactive: [1] 0.022 | [2] -0.021 | [3] 0.042 | [4] -0.024 | [5] -0.036 | [6] 0.013 | [7] -0.015 | [8] -0.001 | [9] 0.018 | [10] 0.004

POLR2B (UniProt P30876)
inactive: [1] -0.011 | [2] -0.017 | [3] 0.025 | [4] -0.018 | [5] 0.005 | [6] 0.029 | [7] -0.031 | [8] -0.014 | [9] 0.028 | [10] 0.032

Additional records follow.

PNISR (UniProt Q8TF01)
inactive: [1] 0.033 | [2] -0.012 | [3] 0.004 | [4] -0.008 | [5] 0.003 | [6] -0.008 | [7] -0.009 | [8] -0.002 | [9] -0.02 | [10] -0.034

POLD1 (UniProt P28340)
inactive: [1] -0.003 | [2] 0.014 | [3] 0.035 | [4] 0.018 | [5] 0 | [6] 0.005 | [7] -0.012 | [8] 0.005 | [9] 0.02 | [10] -0.032

POGLUT1 (UniProt Q8NBL1)
inactive: [1] 0.002 | [2] 0.005 | [3] 0.042 | [4] 0.028 | [5] -0.023 | [6] 0.008 | [7] 0.05 | [8] -0.026 | [9] -0.001 | [10] 0.001

PPFIA3 (UniProt O75145)
inactive: [1] -0.174 | [2] 0.032 | [3] 0.022 | [4] 0.134 | [5] -0.059 | [6] 0.017 | [7] -0.104 | [9] 0.04 | [10] -0.024

PMM1 (UniProt Q92871)
inactive: [1] -0.075 | [3] -0.016 | [4] -0.069 | [5] -0.009 | [6] 0.024 | [7] 0.03 | [8] 0.052 | [9] 0.012

PPHLN1 isoform 3 (UniProt Q8NEY8)
inactive: [3] 0.05 | [4] -0.099 | [9] 0.025

PLSCR3 (UniProt Q9NRY6)
inactive: [2] -0.01 | [7] -0.139 | [8] -0.061 | [10] 0.014
